Among the data in the supplement of paper PMC5949888 are growth estimate values, retold here.

Most values lie at the floor of the assay. Slopes are relative: functional sequences can read slightly below zero. Where only a bound is given, the exact number is not on record here.

This data set deals with Saccharomyces cerevisiae PS128 hsf1 delta, HSF1(1-493) fusion. Description: growth estimate (transactivation domain function in HSF1 fusion, heat-shock survival) (a.u. (slope of normalised read count over time)); higher = stronger growth at 37°C, i.e. more transactivation activity. To be noted: library: random library.
With PCGRLNPAMLHDRSQRA, the growth estimate is under -0.25.
On to VYTGRLLQSVDYVRLRKTSF, for which the growth estimate is under -0.25.
The same measure for SNS: under -0.25; for YGHGQGEAVGGDCVGR: under -0.25.
LQAVDDSPVKCGDRGPPPAT: the growth estimate was under -0.25.
The same measure for SDGMLVPCGVAWIKKHSLRR: under -0.25; for QNRRLKRSGGGRSG: under -0.25.
As for TGHGY, the growth estimate was -0.226.
The same measure for PRRTSGSHDPHGFKAGFPRV: under -0.25; for SRALFDWVPLRRCVERLSGD: under -0.25; for RNSRTGPTESSVHPPSLRPS: under -0.25.
The same measure for IDEADLWYKSNRKWVLLFQA: under -0.25.
The same measure for SGSHTYCFRVSLQ: under -0.25; for TRGPWE: under -0.25; for RSSRGKQSLVEGGLRNSGSR: under -0.25.
In the case of VYQFGKGWR, the growth estimate was under -0.25.
AQIDCRVIVRDFYIDASVFD: the growth estimate was under -0.25.
The same measure for SAAGEA: -0.246; for QVMPKRFRGNSRLTLVVDTI: under -0.25.
In the case of TPH, the growth estimate was under -0.25.
The same measure for YDIEERGRINFLVHLYYYGA: under -0.25.
The same measure for VGNIQPHWAKA: under -0.25; for EMLALQPLL: under -0.25; for LPDH: under -0.25.
Regarding SPHTFSISLGSCEQALPTDR, the growth estimate was under -0.25.
The same measure for AISVVP: under -0.25; for LHHQAPGVIYVARVGVG: under -0.25; for HSVSGFSSAVWTTPSHLLVT: under -0.25.
On to SRAISRTTLGL, for which the growth estimate was under -0.25.
Regarding NAGYPGKFGQCSVNISVK, the growth estimate was under -0.25.
The same measure for GCLWGRRNNGRPDRVWWSH: under -0.25.
Regarding ITRPRSYCSHQGAHEQTLTP, the growth estimate is under -0.25.
The same measure for SVYSDWGYGTCL: under -0.25; for RKVPRYTSRNE: under -0.25; for LNTLNRAHDSHGRWVQYFLY: under -0.25.
The same measure for GTAKWCRTHWPEVLALPRAA: under -0.25; for LLELSRRSKQSRNG: under -0.25; for RRSRTGCGYSGTRGLAPSSE: under -0.25.
Regarding FAAQR, the growth estimate was under -0.25.
The same measure for LASDCVTFVEERSRRIGARP: under -0.25; for SIKTNKRLRYRMGRSRASAQ: under -0.25.
In the case of LWREREGMVSSTLHV, the growth estimate is under -0.25.
The same measure for RGKGLGPGRGTGAYMVNYWP: under -0.25; for NHDTH: under -0.25.
For PSKKVAKAGRCESPCRRLEY, the growth estimate is under -0.25.
The same measure for FLSVSMSVSVAHRVDIISPL: under -0.25; for VLARA: under -0.25; for LGASPYS: under -0.25.
The same measure for RWWIFELFVT: under -0.25; for SCSIRRG: under -0.25.
The same measure for QILSLHFQYV: under -0.25; for RYCPNAPKPVRCCCANDIRG: under -0.25; for VLYYFVNVTWAQVYANQKFE: under -0.25.
Consider GRSSLNLRLISS, for which the growth estimate was under -0.25.
The same measure for PPPLLRPFRFRNMPLLPG: under -0.25; for LTLRQPQPIDAPPGSVTILL: under -0.25; for IGPFVAGSPILRIVGN: under -0.25.
The same measure for DSLRVTIDLFCQKWLRRHGL: under -0.25; for ARIL: under -0.25.
Consider RYSFADGYSHWFVGETITHT, for which the growth estimate is -0.234.
The same measure for YASPHPSCTLFTLVPMVESA: under -0.25.
The same measure for HSSIKVDPTSPAGT: -0.145; for GGGNHCFNYTGVEHVMIHPP: under -0.25.
